Assay results published in the supplement of paper PMC3353916.
The data scatter; read single values as rough.

Tested on: Sindbis virus TE/5'2J-GFP
Test: percent infected (GFP+ in RFP+ ISG-expressing cells); higher = more infection (less antiviral activity)
Details: experiment: primary screen (single well)

“MTSPHFSSYDEGPLDVSMAATNLENQLHSAQKNLLFLQREHASTLKGLHSEIRRLQQHCTDLTYELTVKSSEQTGDGTSKSSELKKRCEELEAQLKVKENENAELLKELEQKNAMITVLENTIKEREKKYLEELKAKSHKLTLLSSELEQRASTIAYLTSQLHAAKKKLMSSSGTSDASPSGSPVLASYKPAPPKDKLPETPRRRMKKSLSAPLHPEFEEVYRFGAESRKLLLREPVDAMPDPTPFLLARESAEVHLIKERPLVIPPIASDRSGEQHSPAREKPHKAHVGVAHRIHHATPPQAQPEVKTLAVDQVNGGKVVRKHSGTDRTV [CCDC92]” was tested, and the percent infected (BHK/HA-Zeo (control)) was 95.4% and the percent infected (BHK/NZAP-Zeo (ZAP)) was 92.8%.
“MTTDEGAKNNEESPTATVAEQGEDITSKKDRGVLKIVKRVGNGEETPMIGDKVYVHYKGKLSNGKKFDSSHDRNEPFVFSLGKGQVIKAWDIGVATMKKGEICHLLCKPEYAYGSAGSLPKIPSNATLFFEIELLDFKGEDLFEDGGIIRRTKRKGEGYSNPNEGATVEIHLEGRCGGRMFDCRDVAFTVGEGEDHDIPIGIDKALEKMQREEQCILYLGPRYGFGEAGKPKFGIEPNAELIYEVTLKSFEKAKESWEMDTKEKLEQAAIVKEKGTVYFKGGKYMQAVIQYGKIVSWLEMEYGLSEKESKASESFLLAAFLNLAMCYLKLREYTKAVECCDKALGLDSANEKGLYRRGEAQLLMNEFESAKGDFEKVLEVNPQNKAARLQISMCQKKAKEHNERDRRIYANMFKKFAEQDAKEEANKAMGKKTSEGVTNEKGTDSQAMEEEKPEGHV [FKBP5]” was tested, and the percent infected (BHK/HA-Zeo (control)) was 98.3% and the percent infected (BHK/NZAP-Zeo (ZAP)) was 94.4%.
In the case of “MTTEQRRSLQAFQDYIRKTLDPTYILSYMAPWFREEEVQYIQAEKNNKGPMEAATLFLKFLLELQEEGWFRGFLDALDHAGYSGLYEAIESWDFKKIEKLEEYRLLLKRLQPEFKTRIIPTDIISDLSECLINQECEEILQICSTKGMMAGAEKLVECLLRSDKENWPKTLKLALEKERNKFSELWIVEKGIKDVETEDLEDKMETSDIQIFYQEDPECQNLSENSCPPSEVSDTNLYSPFKPRNYQLELALPAMKGKNTIICAPTGCGKTFVSLLICEHHLKKFPQGQKGKVVFFANQIPVYEQQKSVFSKYFERHGYRVTGISGATAENVPVEQIVENNDIIILTPQILVNNLKKGTIPSLSIFTLMIFDECHNTSKQHPYNMIMFNYLDQKLGGSSGPLPQVIGLTASVGVGDAKNTDEALDYICKLCASLDASVIATVKHNLEELEQVVYKPQKFFRKVESRISDKFKYIIAQLMRDTESLAKRICKDLENLSQIQNREFGTQKYEQWIVTVQKACMVFQMPDKDEESRICKALFLYTSHLRKYNDALIISEHARMKDALDYLKDFFSNVRAAGFDEIEQDLTQRFEEKLQELESVSRDPSNENPKLEDLCFILQEEYHLNPETITILFVKTRALVDALKNWIEGNPKLSFLKPGILTGRGKTNQNTGMTLPAQKCILDAFKASGDHNILIATSVADEGIDIAQCNLVILYEYVGNVIKMIQTRGRGRARGSKCFLLTSNAGVIEKEQINMYKEKMMNDSILRLQTWDEAVFREKILHIQTHEKFIRDSQEKPKPVPDKENKKLLCRKCKALACYTADVRVIEECHYTVLGDAFKECFVSRPHPKPKQFSSFEKRAKIFCARQNCSHDWGIHVKYKTFEIPVIKIESFVVEDIATGVQTLYSKWKDFHFEKIPFDPAEMSK [DDX58]”, the percent infected (BHK/HA-Zeo (control)) is reported as 82% and the percent infected (BHK/NZAP-Zeo (ZAP)) is reported as 11.9%.
“MTVPVRGFSLLRGRLGRAPALGRSTAPSVRAPGEPGSAFRGFRSSGVRHEAIIISGTEMAKHIQKEIQRGVESWVSLGNRRPHLSIILVGDNPASHTYVRNKIRAASAVGICSELILKPKDVSQEELLDVTDQLNMDPRVSGILVQLPLPDHVDERTICNGIAPEKDVDGFHIINIGRLCLDQHSLIPATASAVWEIIKRTGIQTFGKNVVVAGRSKNVGMPIAMLLHTDGEHERPGGDATVTIAHRYTPKEQLKIHTQLADIIIVAAGIPKLITSDMVKEGAAVIDVGINYVHDPVTGKTKLVGDVDFEAVKKKAGFITPVPGGVGPMTVAMLLKNTLLAAKKIIY [MTHFD2L]” was tested, and the percent infected (BHK/HA-Zeo (control)) was 97.9% and the percent infected (BHK/NZAP-Zeo (ZAP)) was 95.5%.
With “MVAHNQVAADNAVSTAAEPRRRPEPSSSSSSSPAAPARPRPCPAVPAPAPGDTHFRTFRSHADYRRITRASALLDACGFYWGPLSVHGAHERLRAEPVGTFLVRDSRQRNCFFALSVKMASGPTSIRVHFQAGRFHLDGSRESFDCLFELLEHYVAAPRRMLGAPLRQRRVRPLQELCRQRIVATVGRENLARIPLNPVLRDYLSSFPFQI [SOCS1]” the percent infected (BHK/HA-Zeo (control)) was 92.6% and the percent infected (BHK/NZAP-Zeo (ZAP)) was 91.9%.
Work on “MVAKDYPFYLTVKRANCSLELPPASGPAKDAEEPSNKRVKPLSRVTSLANLIPPVKATPLKRFSQTLQRSISFRSESRPDILAPRPWSRNAAPSSTKRRDSKLWSETFDVCVNQMLTSKEIKRQEAIFELSQGEEDLIEDLKLAKKAYHDPMLKLSIMTEQELNQIFGTLDSLIPLHEELLSQLRDVRKPDGSTEHVGPILVGWLPCLSSYDSYCSNQVAAKALLDHKKQDHRVQDFLQRCLESPFSRKLDLWNFLDIPRSRLVKYPLLLREILRHTPNDNPDQQHLEEAINIIQGIVAEINTKTGESECRYYKERLLYLEEGQKDSLIDSSRVLCCHGELKNNRGVKLHVFLFQEVLVITRAVTHNEQLCYQLYRQPIPVKDLLLEDLQDGEVRLGGSLRGAFSNNERIKNFFRVSFKNGSQSQTHSLQANDTFNKQQWLNCIRQAKETVLCAAGQAGVLDSEGSFLNPTTGSRELQGETKLEQMDQSDSESDCSMDTSEVSLDCERMEQTDSSCGNSRHGESNV [ARHGEF3]” yielded a percent infected (BHK/HA-Zeo (control)) of 98.4% and a percent infected (BHK/NZAP-Zeo (ZAP)) of 93.5%.
With “MVMFKKIKSFEVVFNDPEKVYGSGEKVAGRVIVEVCEVTRVKAVRILACGVAKVLWMQGSQQCKQTSEYLRYEDTLLLEDQPTGENEMVIMRPGNKYEYKFGFELPQGPLGTSFKGKYGCVDYWVKAFLDRPSQPTQETKKNFEVVDLVDVNTPDLMAPVSAKKEKKVSCMFIPDGRVSVSARIDRKGFCEGDEISIHADFENTCSRIVVPKAAIVARHTYLANGQTKVLTQKLSSVRGNHIISGTCASWRGKSLRVQKIRPSILGCNILRVEYSLLIYVSVPGSKKVILDLPLVIGSRSGLSSRTSSMASRTSSEMSWVDLNIPDTPEAPPCYMDVIPEDHRLESPTTPLLDDMDGSQDSPIFMYAPEFKFMPPPTYTEVDPCILNNNVQ [TXNIP]” the percent infected (BHK/HA-Zeo (control)) was 97.9% and the percent infected (BHK/NZAP-Zeo (ZAP)) was 95.1%.
For “MVSYWDTGVLLCALLSCLLLTGSSSGSKLKDPELSLKGTQHIMQAGQTLHLQCRGEAAHKWSLPEMVSKESERLSITKSACGRNGKQFCSTLTLNTAQANHTGFYSCKYLAVPTSKKKETESAIYIFISDTGRPFVEMYSEIPEIIHMTEGRELVIPCRVTSPNITVTLKKFPLDTLIPDGKRIIWDSRKGFIISNATYKEIGLLTCEATVNGHLYKTNYLTHRQTNTIIDVQISTPRPVKLLRGHTLVLNCTATTPLNTRVQMTWSYPDEKNKRASVRRRIDQSNSHANIFYSVLTIDKMQNKDKGLYTCRVRSGPSFKSVNTSVHIYDKAFITVKHRKQQVLETVAGKRSYRLSMKVKAFPSPEVVWLKDGLPATEKSARYLTRGYSLIIKDVTEEDAGNYTILLSIKQSNVFKNLTATLIVNVKPQIYEKAVSSFPDPALYPLGSRQILTCTAYGIPQPTIKWFWHPCNHNHSEARCDFCSNNEESFILDADSNMGNRIESITQRMAIIEGKNKMASTLVVADSRISGIYICIASNKVGTVGRNISFYITDVPNGFHVNLEKMPTEGEDLKLSCTVNKFLYRDVTWILLRTVNNRTMHYSISKQKMAITKEHSITLNLTIMNVSLQDSGTYACRARNVYTGEEILQKKEITIRDQEAPYLLRNLSDHTVAISSSTTLDCHANGVPEPQITWFKNNHKIQQEPGIILGPGSSTLFIERVTEEDEGVYHCKATNQKGSVESSAYLTVQGTSDKSNLELITLTCTCVAATLFWLLLTLFIRKMKRSSSEIKTDYLSIIMDPDEVPLDEQCERLPYDASKWEFARERLKLGKSLGRGAFGKVVQASAFGIKKSPTCRTVAVKMLKEGATASEYKALMTELKILTHIGHHLNVVNLLGACTKQGGPLMVIVEYCKYGNLSNYLKSKRDLFFLNKDAALHMEPKKEKMEPGLEQGKKPRLDSVTSSESFASSGFQEDKSLSDVEEEEDSDGFYKEPITMEDLISYSFQVARGMEFLSSRKCIHRDLAARNILLSENNVVKICDFGLARDIYKNPDYVRKGDTRLPLKWMAPESIFDKIYSTKSDVWSYGVLLWEIFSLGGSPYPGVQMDEDFCSRLREGMRMRAPEYSTPEIYQIMLDCWHRDPKERPRFAELVEKLGDLLQANVQQDGKDYIPINAILTGNSGFTYSTPAFSEDFFKESISAPKFNSGSSDDVRYVNAFKFMSLERIKTFEELLPNATSMFDDYQGDSSTLLASPMLKRFTWTDSKPKASLKIDLRVTSKSKESGLSDVSRPSFCHSSCGHVSEGKRRFTYDHAELERKIACCSPPPDYNSVVLYSTPPI [FLT1]”, the percent infected (BHK/HA-Zeo (control)) was 99.1% and the percent infected (BHK/NZAP-Zeo (ZAP)) was 98.5%.
